Among the data in paper PMC8651787, “Tankyrase-1-mediated degradation of Golgin45 regulates glycosyltransferase trafficking and protein glycosylation in Rab2-GTP-dependent manner” (Communications Biology, 2021) are binding values, retold here.

Amino acid sequences for entries named in this document (tags omitted). A change or cut given only in a name is not applied to a line headed by its entry.
UniProt O60493: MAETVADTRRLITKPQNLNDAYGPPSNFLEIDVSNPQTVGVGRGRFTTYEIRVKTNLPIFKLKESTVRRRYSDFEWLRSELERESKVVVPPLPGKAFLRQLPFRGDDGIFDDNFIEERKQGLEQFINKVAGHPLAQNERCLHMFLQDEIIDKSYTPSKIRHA
UniProt P61019: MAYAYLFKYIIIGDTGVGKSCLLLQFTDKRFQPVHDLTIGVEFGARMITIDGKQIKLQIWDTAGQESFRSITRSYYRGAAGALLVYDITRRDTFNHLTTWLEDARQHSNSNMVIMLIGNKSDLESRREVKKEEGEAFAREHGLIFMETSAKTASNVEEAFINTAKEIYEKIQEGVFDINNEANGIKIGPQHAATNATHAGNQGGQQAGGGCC
UniProt Q9H3P7: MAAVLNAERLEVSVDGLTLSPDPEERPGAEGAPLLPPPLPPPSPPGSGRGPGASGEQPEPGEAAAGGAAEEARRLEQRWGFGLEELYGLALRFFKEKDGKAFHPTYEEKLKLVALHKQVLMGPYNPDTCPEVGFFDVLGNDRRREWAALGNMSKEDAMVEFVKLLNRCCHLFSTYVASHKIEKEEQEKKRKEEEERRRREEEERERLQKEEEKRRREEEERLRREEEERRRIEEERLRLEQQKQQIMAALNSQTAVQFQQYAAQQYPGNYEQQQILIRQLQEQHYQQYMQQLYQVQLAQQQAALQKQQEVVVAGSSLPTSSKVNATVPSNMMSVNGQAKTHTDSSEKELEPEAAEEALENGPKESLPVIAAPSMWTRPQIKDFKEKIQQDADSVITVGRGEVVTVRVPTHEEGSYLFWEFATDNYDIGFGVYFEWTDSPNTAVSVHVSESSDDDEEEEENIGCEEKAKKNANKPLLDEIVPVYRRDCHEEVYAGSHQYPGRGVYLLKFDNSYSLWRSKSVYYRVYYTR
UniProt O95271: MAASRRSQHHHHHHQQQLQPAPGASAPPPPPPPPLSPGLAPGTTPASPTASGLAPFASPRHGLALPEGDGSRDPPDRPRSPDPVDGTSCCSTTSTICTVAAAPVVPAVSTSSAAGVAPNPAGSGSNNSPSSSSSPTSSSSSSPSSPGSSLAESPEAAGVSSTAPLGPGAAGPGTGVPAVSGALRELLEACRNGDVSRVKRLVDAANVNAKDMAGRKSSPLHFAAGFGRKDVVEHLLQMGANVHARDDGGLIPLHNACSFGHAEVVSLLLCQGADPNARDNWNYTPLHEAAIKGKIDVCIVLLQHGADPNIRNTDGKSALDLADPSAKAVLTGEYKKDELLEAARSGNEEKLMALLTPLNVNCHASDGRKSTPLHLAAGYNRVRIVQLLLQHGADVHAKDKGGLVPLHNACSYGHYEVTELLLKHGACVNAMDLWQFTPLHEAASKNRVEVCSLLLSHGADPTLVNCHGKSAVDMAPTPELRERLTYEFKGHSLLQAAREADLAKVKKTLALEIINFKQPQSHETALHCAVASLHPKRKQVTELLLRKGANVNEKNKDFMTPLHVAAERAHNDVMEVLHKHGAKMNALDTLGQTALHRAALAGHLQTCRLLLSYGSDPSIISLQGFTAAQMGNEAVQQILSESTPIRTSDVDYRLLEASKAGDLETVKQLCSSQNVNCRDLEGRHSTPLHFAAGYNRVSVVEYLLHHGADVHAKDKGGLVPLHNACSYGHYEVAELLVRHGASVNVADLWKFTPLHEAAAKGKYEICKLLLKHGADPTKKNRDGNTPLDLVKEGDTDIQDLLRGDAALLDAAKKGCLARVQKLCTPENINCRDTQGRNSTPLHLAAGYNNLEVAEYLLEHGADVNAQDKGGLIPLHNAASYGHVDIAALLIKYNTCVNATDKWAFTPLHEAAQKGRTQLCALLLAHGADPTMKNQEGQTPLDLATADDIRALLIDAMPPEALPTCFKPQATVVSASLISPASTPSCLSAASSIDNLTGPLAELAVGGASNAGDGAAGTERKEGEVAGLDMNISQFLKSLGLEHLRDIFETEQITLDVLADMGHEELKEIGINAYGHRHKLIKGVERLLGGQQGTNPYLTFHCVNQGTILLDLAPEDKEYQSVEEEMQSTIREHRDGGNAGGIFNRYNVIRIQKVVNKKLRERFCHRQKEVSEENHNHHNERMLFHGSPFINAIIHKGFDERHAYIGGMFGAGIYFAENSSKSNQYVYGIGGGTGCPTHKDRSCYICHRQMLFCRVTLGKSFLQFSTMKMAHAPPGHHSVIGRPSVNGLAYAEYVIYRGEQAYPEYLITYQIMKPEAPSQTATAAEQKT

The target in test [1] is mCherry tagged Sorting Nexin 3 (UniProt O60493). Nature of the test: co-IP; HeLa cells transfected with mCherry fusions; lysis in 25 mM HEPES pH 7.4, 150 mM NaCl, 1% NP-40; anti-RFP agarose beads 4 h at 4 °C; western blot for endogenous proteins. On the technique in general: A western blot detects proteins with antibodies after separation by electrophoresis.
For test [2], the target named is T1, mCherry-Golgin45 (human) (UniProt Q9H2G9).
T1 sequence: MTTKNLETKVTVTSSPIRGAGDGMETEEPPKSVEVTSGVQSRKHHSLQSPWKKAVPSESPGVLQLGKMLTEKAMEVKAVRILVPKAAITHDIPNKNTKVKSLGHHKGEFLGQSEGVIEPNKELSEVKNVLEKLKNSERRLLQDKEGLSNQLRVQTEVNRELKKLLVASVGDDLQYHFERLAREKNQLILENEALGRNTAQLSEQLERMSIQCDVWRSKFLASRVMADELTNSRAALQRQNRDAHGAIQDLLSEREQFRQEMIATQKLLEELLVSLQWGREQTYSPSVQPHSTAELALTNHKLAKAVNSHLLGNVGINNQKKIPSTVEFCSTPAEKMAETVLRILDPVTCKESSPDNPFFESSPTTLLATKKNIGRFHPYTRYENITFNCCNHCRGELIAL
The test is described as above.

For test [3], the target named is T2, mCherry-Golgin45-V214/273A (human) (UniProt Q9H2G9).
T2 sequence: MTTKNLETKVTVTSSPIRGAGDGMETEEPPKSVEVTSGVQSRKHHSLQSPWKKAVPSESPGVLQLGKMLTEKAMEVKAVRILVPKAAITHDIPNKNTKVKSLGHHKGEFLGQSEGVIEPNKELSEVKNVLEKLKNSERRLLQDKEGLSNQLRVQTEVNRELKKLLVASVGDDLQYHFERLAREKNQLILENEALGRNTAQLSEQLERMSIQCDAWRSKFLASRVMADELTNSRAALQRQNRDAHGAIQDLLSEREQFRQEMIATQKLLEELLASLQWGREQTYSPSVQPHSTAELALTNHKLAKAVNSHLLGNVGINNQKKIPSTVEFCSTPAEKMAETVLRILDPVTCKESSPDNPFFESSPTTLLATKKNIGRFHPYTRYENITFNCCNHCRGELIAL
The description is as above.

The target of test [4] is T3, GST-Golgin45 N70 ΔTBD (human) (UniProt Q9H2G9).
T3 sequence: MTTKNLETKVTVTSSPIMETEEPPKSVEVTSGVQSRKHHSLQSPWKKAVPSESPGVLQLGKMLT
Nature of the test: pull-down; 150 μg GST fusion protein on Glutathione-Sepharose 4B beads; 0.1 μM prey protein; 25 mM Hepes pH 7.4, 150 mM NaOAc, 0.2% Triton, 1 mM DTT; 4 °C, 2 h; western blot; both purified.

Test [5] has as its target T4, mCherry-Golgin45-ΔTBD (human) (UniProt Q9H2G9).
T4 sequence: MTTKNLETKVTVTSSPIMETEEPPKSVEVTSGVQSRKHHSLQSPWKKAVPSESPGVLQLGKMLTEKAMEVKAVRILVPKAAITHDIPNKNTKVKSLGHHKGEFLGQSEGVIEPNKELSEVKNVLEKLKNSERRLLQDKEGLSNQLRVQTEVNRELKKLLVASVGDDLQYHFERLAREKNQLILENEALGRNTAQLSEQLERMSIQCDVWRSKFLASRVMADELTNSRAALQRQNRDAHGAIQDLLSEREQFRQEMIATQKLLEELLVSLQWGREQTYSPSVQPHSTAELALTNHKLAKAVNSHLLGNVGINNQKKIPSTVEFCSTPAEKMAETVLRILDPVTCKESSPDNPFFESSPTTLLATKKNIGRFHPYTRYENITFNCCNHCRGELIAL
Nature of the test: co-IP; HeLa cells transfected with mCherry fusions; lysis in 25 mM HEPES pH 7.4, 150 mM NaCl, 1% NP-40; anti-RFP agarose beads 4 h at 4 °C; western blot for endogenous proteins.

The target in test [6] is mCherry tagged Sorting Nexin 3 (UniProt O60493). The test is described as above. The source holds these as a separate data set.
Test [7] addresses T1, mCherry-Golgin45 (human). Described as above. The source holds these as a separate data set.
The next test has as its target GST-Rab2-GTPγS (UniProt P61019). Nature of the test: pull-down; GST-Rab on Glutathione-Sepharose 4B, EDTA treated and loaded with GTPγS (100 μM); 0.1 μM prey protein; 25 mM Hepes pH 7.4, 150 mM NaOAc, 25 mM Mg(OAc)2, 0.2% Triton, 1 mM DTT; 4 °C, 2 h; western blot; both purified.

Where two headings read alike, the source gives them in different places. No constants are given. Whether binding was seen depends on the method and setting. For some of these results: Binding seen in cells or lysates may run through a third protein. Some results given as binding are weak or reduced against the parent protein; the word gives no strength. For some of these results: Sequences can lack the tags named with a protein.

As to “ACBD3, endogenous (from UniProt Q9H3P7 1-528)”, the values for the binding entry (in test [1]; in the test with mCherry-Golgin45 (human) [2]; in test [3]) were “no binding”, “binds” and “binds”, respectively.
In the case of “TNKS1-Arc1 (183–335aa) (from UniProt O95271 183-335) (domain or fragment)”, the binding entry in test [4] was “no binding (tested: 0.1 μM)”.
“TNKS1-Arc2 (336–489aa) (from UniProt O95271 336-489) (domain or fragment)”: the binding result in test [4] was “no binding (tested: 0.1 μM)”.
Same read-out and setting: with “TNKS1-Arc4 (654–806aa) (from UniProt O95271 654-806) (domain or fragment)” the entry was “no binding (tested: 0.1 μM)”.
On to “TNKS1-Arc5 (807–961aa) (from UniProt O95271 807-961) (domain or fragment)”, for which the binding entry in test [4] is “no binding (tested: 0.1 μM)”.
As to “Tankyrase-1 (TNKS1), endogenous (from UniProt O95271 1-1327)”, the binding entry is “no binding” in test [1], “binds” in the test with mCherry-Golgin45 (human) [2], “binds” in test [3] and “no binding” in test [5].

B1: GM130, endogenous (protein, UniProt Q08379 1-1002)
chain: MWPQPRLPPRPAMSEETRQSKLAAAKKKLREYQQRNSPGVPTGAKKKKKIKNGSNPETTTSGGCHSPEDTPKDNAATLQPSDDTVLPGGVPSPGASLTSMAASQNHDADNVPNLMDETKTFSSTESLRQLSQQLNGLVCESATCVNGEGPASSANLKDLESRYQQLAVALDSSYVTNKQLNITIEKLKQQNQEITDQLEEEKKECHQKQGALREQLQVHIQTIGILVSEKAELQTALAHTQHAARQKEGESEDLASRLQYSRRRVGELERALSAVSTQQKKADRYNKELTKERDALRLELYKNTQSNEDLKQEKSELEEKLRVLVTEKAGMQLNLEELQKKLEMTELLLQQFSSRCEAPDANQQLQQAMEERAQLEAHLGQVMESVRQLQMERDKYAENLKGESAMWRQRMQQMSEQVHTLREEKECSMSRVQELETSLAELRNQMAEPPPPEPPAGPSEVEQQLQAEAEHLRKELEGLAGQLQAQVQDNEGLSRLNREQEERLLELERAAELWGEQAEARRQILETMQNDRTTISRALSQNRELKEQLAELQSGFVKLTNENMEITSALQSEQHVKRELGKKLGELQEKLSELKETVELKSQEAQSLQQQRDQYLGHLQQYVAAYQQLTSEKEVLHNQLLLQTQLVDQLQQQEAQGKAVAEMARQELQETQERLEAATQQNQQLRAQLSLMAHPGEGDGLDREEEEDEEEEEEEAVAVPQPMPSIPEDLESREAMVAFFNSAVASAEEEQARLRGQLKEQRVRCRRLAHLLASAQKEPEAAAPAPGTGGDSVCGETHRALQGAMEKLQSRFMELMQEKADLKERVEELEHRCIQLSGETDTIGEYIALYQSQRAVLKERHREKEEYISRLAQDKEEMKVKLLELQELVLRLVGDRNEWHGRFLAAAQNPADEPTSGAPAPQELGAANQQGDLCEVSLAGSVEPAQGEAREGSPRDNPTAQQIMQLLREMQNPRERPGLGSNPCIPFFYRADENDEVKITVI
B1: the binding entry (in test [6]; with mCherry-Golgin45 (human) [7]) was “no binding” in each case.

B2: Golgin-45(cc#1-3; 120-276aa), C-terminal 6xHis (domain or fragment, UniProt Q9H2G9 120-276)
chain: NKELSEVKNVLEKLKNSERRLLQDKEGLSNQLRVQTEVNRELKKLLVASVGDDLQYHFERLAREKNQLILENEALGRNTAQLSEQLERMSIQCDVWRSKFLASRVMADELTNSRAALQRQNRDAHGAIQDLLSEREQFRQEMIATQKLLEELLVSLQ
For the molecule B2, the binding result with GST-Rab2-GTPγS is on record as “binds”.

B3: Golgin97, endogenous (protein, UniProt Q92805 1-767)
chain: MFAKLKKKIAEETAVAQRPGGATRIPRSVSKESVASMGADSGDDFASDGSSSREDLSSQLLRRNEQIRKLEARLSDYAEQVRNLQKIKEKLEIALEKHQDSSMRKFQEQNETFQANRAKMAEGLALALARKDQEWSEKMDQLEKEKNILTAQLQEMKNQSMNLFQRRDEMDELEGFQQQELSKIKHMLLKKEESLGKMEQELEARTRELSRTQEELMNSNQMSSDLSQKLEELQRHYSTLEEQRDHVIASKTGAESKITALEQKEQELQALIQQLSIDLQKVTAETQEKEDVITHLQEKVASLEKRLEQNLSGEEHLQELLKEKTLAEQNLEDTRQQLLAARSSQAKAINTLETRVRELEQTLQASEEQLQQSKGIVAAQETQIQELAAANQESSHVQQQALALEQQFLERTQALEAQIVALERTRAADQTTAEQGMRQLEQENAALKECRNEYERSLQNHQFELKKLKEEWSQREIVSVAMAQALEEVRKQREEFQQQAANLTAIIDEKEQNLREKTEVLLQKEQEILQLERGHNSALLQIHQLQAELEALRTLKAEEAAVVAEQEDLLRLRGPLQAEALSVNESHVTSRAMQDPVFQLPTAGRTPNGEVGAMDLTQLQKEKQDLEQQLLEKNKTIKQMQQRMLELRKTLQKELKIRPDNELFEVREKPGPEMANMAPSVTNNTDLTDAREINFEYLKHVVLKFMSCRESEAFHLIKAVSVLLNFSQEEENMLKETLEYKMSWFGSKPAPKGSIRPSISNPRIPWS
In the case of B3, the binding entry (in test [6]; with mCherry-Golgin45 (human) [7]) was “no binding” each time.
